The assay concerns BDF1 mice, colon carcinoma 38 sc, T/C %. Put plainly: NCI In Vivo Anticancer Drug Screen. Data for tumor model Colon Carcinoma 38 (subcutaneous) in B6D2F1 (BDF1) mice. The settings on record: T/C endpoint: median tumor weight (est.), higher T/C = larger tumour; for T/C: evaluated on day 20. The essentials: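 Transplantable tumor in mice; compound-treated vs vehicle-dosed controls. Measured survival or tumor size; value = T ÷ C.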

Where [1] appears, read: dose: 200.0 mg/kg/injection, schedule: Q07DX002 (ip), vehicle: Klucel (hydroxypropylcellulose) (HPC).
[2] abbreviates: dose: 400.0 mg/kg/injection, schedule: Q07DX002 (ip), vehicle: Klucel (hydroxypropylcellulose) (HPC).

The list does not hold the whole screen: it is rich in T/C values a quarter to a half above the control, in often repeated tests (any T/C) and in doses without a T/C. Further doses and runs are listed elsewhere. T/C gives the treated animals as a percentage of the vehicle group. Schedules are NCI's codes, read here as Q, the interval in days (D) or hours (H), X, the number of doses. Some entries hold several experiments; their values stand side by side, smallest first. Brackets with × count equal records among those shown. Some T/C values carry the count of animals alive at the toxicity check (mostly the fifth day); without a count, all were alive then. Some entries give survivors of the animals treated and no T/C: the source holds a T/C of zero for them, seemingly a mark for toxic or unscored doses. Survivors were counted at the toxicity check, usually on the fifth day, unless a day is given; later deaths do not show.

Our source for the survivor count and T/C values is PubChem BioAssay AID212 (DTP/NCI, 2004).

As for `NC(=O)c1cn(C2OC(CO)C(O)C2O)c2ncnc(N)c12` (stereo not given), the survivor count was 1 of 10 on day 20 (dose: 8.0 mg/kg/injection, schedule: Q07DX002 (ip), vehicle: saline with Tween-80); 0 of 10 on day 20 (dose: 16.0 mg/kg/injection, schedule: Q07DX002 (ip), vehicle: saline with Tween-80); 0 of 10 on day 20 (dose: 16.0 mg/kg/injection, schedule: Q07DX002 (ip), vehicle: suspension in saline).

For `OC(CBr)C(O)C(O)C(O)CBr` (stereo not given), the T/C (dose: 50.0 mg/kg/injection, schedule: Q07DX003 (ip), vehicle: saline with Tween-80) was 132 % of control; the T/C (dose: 100.0 mg/kg/injection, schedule: Q07DX002 (ip), vehicle: Klucel (hydroxypropylcellulose) (HPC)) was 48, 51, 72, 79, 88, 91, 94, 98, 99, 117 % of control; the T/C (dose: 100.0 mg/kg/injection, schedule: Q07DX003 (ip), vehicle: saline with Tween-80) was 133 % of control; the T/C under setting [1] was 25, 27, 39, 53, 59, 81 (2×), 84, 97 % of control (2×); the T/C under setting [2] was 4 [8 of 10 alive on day 20], 5, 18 [8 of 10 alive on day 20], 24, 32, 48, 51, 59, 75 % of control. For the same compound, the survivor count runs as follows: under setting [2], 3 of 10 on day 20; (dose: 800.0 mg/kg/injection, schedule: Q07DX002 (ip), vehicle: Klucel (hydroxypropylcellulose) (HPC)) 0 of 10 on day 20, 1 of 10 on day 20, 2 of 10 on day 20, 3 of 10 on day 20, 5 of 10 on day 20, 6 of 10 on day 20.

For the compound `Cc1ccc(S(=O)(=O)OCOS(=O)(=O)c2ccc(C)cc2)cc1`, the survivor count (dose: 3200.0 mg/kg/injection, schedule: Q07DX002 (ip), vehicle: Klucel (hydroxypropylcellulose) (HPC)) is reported as 0 of 10 on day 20.

On to `CS(C)=O`, for which the T/C (dose: 1.5 grams/kg/injection, schedule: Q07DX003 (ip), vehicle: saline) is 129 % of control.

For the compound `O=NNc1ccccn1`, where the note is “dose: 6.25 mg/kg/injection, schedule: Q07DX002 (ip), vehicle: saline”, the T/C is 137 % of control. Moreover, the survivor count is on record as 0 of 10 on day 20 (dose: 50.0 mg/kg/injection, schedule: Q07DX002 (ip), vehicle: saline) and 0 of 10 on day 20 (dose: 100.0 mg/kg/injection, schedule: Q07DX002 (ip), vehicle: saline).

As for `CC(=O)OCC1(C)NC(=O)c2ccccc2O1` (stereo not given), the T/C (dose: 12.5 mg/kg/injection, schedule: Q07DX002 (ip), vehicle: saline with Tween-80) was 125 % of control. Further, the survivor count (dose: 1800.0 mg/kg/injection, schedule: Q07DX002 (ip), vehicle: saline with Tween-80) is 5 of 10 on day 20.

For the compound `ClCCCCCCCCCCc1ccccc1`, the T/C (dose: 50.0 mg/kg/injection, schedule: Q07DX002 (ip), vehicle: Klucel (hydroxypropylcellulose) (HPC)) is 129 % of control.

On to `NC(=S)c1ncn(C2OC(CO)C(O)C2O)c1N` (stereo not given), for which the T/C by setting is: (dose: 12.5 mg/kg/injection, schedule: Q07DX002 (ip), vehicle: saline) 140 % of control; (dose: 25.0 mg/kg/injection, schedule: Q07DX002 (ip), vehicle: saline) 131 % of control.

Turning to `O=C(O)[C@H](Cc1ccccc1)N1C(=O)c2ccccc2C1=O`, the survivor count is reported as 6 of 10 on day 20 (dose: 200.0 mg/kg/injection, schedule: Q07DX002 (ip), vehicle: DMSO); 0 of 10 on day 20 (dose: 400.0 mg/kg/injection, schedule: Q07DX002 (ip), vehicle: DMSO); 0 of 10 on day 20 (dose: 800.0 mg/kg/injection, schedule: Q07DX002 (ip), vehicle: DMSO).

As to `CN1CCN(Cc2nc3cccc4c3c([n+]2[O-])-c2ccccc2-4)CC1`, the survivor count (dose: 400.0 mg/kg/injection, schedule: Q07DX002 (ip), vehicle: saline with Tween-80) is 4 of 10 on day 20.

For the compound `CC(C)(O)/C=C/C(=O)[C@](C)(O)[C@H]1[C@H](O)C[C@@]2(C)[C@@H]3CC=C4[C@@H](C[C@H](O)C(=O)C4(C)C)[C@]3(C)C(=O)C[C@]12C`, the survivor count reads like this: (dose: 2.0 mg/kg/injection, schedule: Q07DX002 (ip), vehicle: saline + Tween-80 + alcohol) 4 of 10 on day 20; (dose: 4.0 mg/kg/injection, schedule: Q07DX002 (ip), vehicle: saline + Tween-80 + alcohol) 1 of 10 on day 20.

On to `COc1ccc2[nH]c3ccc4cc[n+](CCN5CCC(C6CCN(CC[n+]7ccc8ccc9[nH]c%10ccc(OC)cc%10c9c8c7)CC6)CC5)cc4c3c2c1`, for which the survivor count runs as follows: under setting [1], 1 of 10 on day 20; under setting [2], 0 of 10 on day 20.

For the compound `Cc1c(-c2ccc(C3CCCCC3)cc2)nc2ccc(F)cc2c1C(=O)O`, the T/C (dose: 200.0 mg/kg/injection, schedule: Q07DX002 (ip), vehicle: Klucel + Tween-80) is 130 % of control [9 of 10 alive on day 20].

For `Cc1nc(N)nc(N)c1-c1ccc(Cl)c(Cl)c1`, the T/C runs as follows: (dose: 1.25 mg/kg/injection, schedule: Q07DX002 (ip), vehicle: saline) 132 % of control; (dose: 5.0 mg/kg/injection, schedule: Q07DX002 (ip), vehicle: saline) 139 % of control; (dose: 5.0 mg/kg/injection, schedule: Q07DX002 (ip), vehicle: suspension in saline) 138 % of control. Besides, the survivor count is 5 of 10 on day 20 (dose: 40.0 mg/kg/injection, schedule: Q07DX002 (ip), vehicle: saline) and 2 of 10 on day 20 (dose: 80.0 mg/kg/injection, schedule: Q07DX002 (ip), vehicle: suspension in saline).

Take `Cc1cc(O)c(N=Nc2ccc(C(=O)O)cc2)cc1C`: where the note is “dose: 800.0 mg/kg/injection, schedule: Q07DX002 (ip), vehicle: saline with Tween-80”, the survivor count is 1 of 10 on day 20.

Consider `C[C@@]1(CO)[C@H](O)CC[C@@]2(C)[C@H]1CC[C@H]1C[C@@H]3C[C@@]12CC[C@@]3(O)COC(=O)CN`, for which the T/C was 143 % of control (dose: 50.0 micrograms/kg/injection, schedule: Q07DX002 (ip), vehicle: saline + alcohol); 129 % of control (dose: 200.0 micrograms/kg/injection, schedule: Q07DX002 (ip), vehicle: saline + alcohol); 132 % of control (dose: 400.0 micrograms/kg/injection, schedule: Q07DX002 (ip), vehicle: saline + alcohol).

Regarding `C[C@@H]1C[C@H]2[C@@H]3CCC4=CC(=O)C=C[C@]4(C)[C@@]3(F)[C@@H](O)C[C@]2(C)[C@@]1(O)C(=O)CO`, under “dose: 6.25 mg/kg/injection, schedule: Q07DX002 (ip), vehicle: Klucel (hydroxypropylcellulose) (HPC)”, the T/C is 133 % of control.

As for `CC[n+]1ccc(Nc2ccc(NC(=O)c3ccc(C(=O)Nc4ccc(Nc5cc[n+](CC)c(N)n5)cc4)cc3)cc2)nc1N`, the T/C (dose: 12.5 mg/kg/injection, schedule: Q07DX003 (ip), vehicle: suspension in saline) was 140 % of control.
